Measurements reported in publication PMC5974278.
No constants are given. Whether binding was seen depends on the method and setting. In cells and extracts the contact can be indirect. A yes stands for co-enrichment or nearness to the bait. Other partners may have been found.

The chains behind the UniProt entries cited, without tags or fusion partners.
UniProt Q9WTU0: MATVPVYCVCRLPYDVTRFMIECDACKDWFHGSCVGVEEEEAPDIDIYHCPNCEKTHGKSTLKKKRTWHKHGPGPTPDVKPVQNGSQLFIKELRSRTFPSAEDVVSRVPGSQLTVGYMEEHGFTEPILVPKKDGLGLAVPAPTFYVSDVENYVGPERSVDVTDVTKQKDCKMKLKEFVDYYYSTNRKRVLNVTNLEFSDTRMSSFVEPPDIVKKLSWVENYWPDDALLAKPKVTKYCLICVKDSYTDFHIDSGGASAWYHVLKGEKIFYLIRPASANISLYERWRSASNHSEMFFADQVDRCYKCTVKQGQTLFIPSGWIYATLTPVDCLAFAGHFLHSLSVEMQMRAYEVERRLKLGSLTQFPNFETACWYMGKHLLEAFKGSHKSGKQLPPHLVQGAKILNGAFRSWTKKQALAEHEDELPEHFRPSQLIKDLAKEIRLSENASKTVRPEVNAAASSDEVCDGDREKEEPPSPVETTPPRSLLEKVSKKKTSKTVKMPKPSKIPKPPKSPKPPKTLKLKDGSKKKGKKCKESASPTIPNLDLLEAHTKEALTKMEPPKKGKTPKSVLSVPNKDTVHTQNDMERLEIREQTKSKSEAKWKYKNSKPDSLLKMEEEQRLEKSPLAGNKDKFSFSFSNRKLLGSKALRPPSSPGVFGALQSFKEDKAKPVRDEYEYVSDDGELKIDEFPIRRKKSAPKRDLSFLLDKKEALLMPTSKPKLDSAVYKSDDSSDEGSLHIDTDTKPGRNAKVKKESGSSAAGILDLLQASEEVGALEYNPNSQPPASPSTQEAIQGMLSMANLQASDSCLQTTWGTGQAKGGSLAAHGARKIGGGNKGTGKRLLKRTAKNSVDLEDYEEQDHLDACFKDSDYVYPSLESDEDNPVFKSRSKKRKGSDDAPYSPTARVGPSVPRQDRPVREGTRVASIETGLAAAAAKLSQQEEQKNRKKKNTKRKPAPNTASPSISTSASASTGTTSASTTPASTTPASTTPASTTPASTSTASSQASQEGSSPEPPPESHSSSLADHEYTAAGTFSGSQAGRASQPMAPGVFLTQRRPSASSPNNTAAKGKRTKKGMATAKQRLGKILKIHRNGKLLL

Target: T1, ChREBP used as bait for mass spectrometry in hepatocytes (UniProt Q99MZ3)
T1 sequence: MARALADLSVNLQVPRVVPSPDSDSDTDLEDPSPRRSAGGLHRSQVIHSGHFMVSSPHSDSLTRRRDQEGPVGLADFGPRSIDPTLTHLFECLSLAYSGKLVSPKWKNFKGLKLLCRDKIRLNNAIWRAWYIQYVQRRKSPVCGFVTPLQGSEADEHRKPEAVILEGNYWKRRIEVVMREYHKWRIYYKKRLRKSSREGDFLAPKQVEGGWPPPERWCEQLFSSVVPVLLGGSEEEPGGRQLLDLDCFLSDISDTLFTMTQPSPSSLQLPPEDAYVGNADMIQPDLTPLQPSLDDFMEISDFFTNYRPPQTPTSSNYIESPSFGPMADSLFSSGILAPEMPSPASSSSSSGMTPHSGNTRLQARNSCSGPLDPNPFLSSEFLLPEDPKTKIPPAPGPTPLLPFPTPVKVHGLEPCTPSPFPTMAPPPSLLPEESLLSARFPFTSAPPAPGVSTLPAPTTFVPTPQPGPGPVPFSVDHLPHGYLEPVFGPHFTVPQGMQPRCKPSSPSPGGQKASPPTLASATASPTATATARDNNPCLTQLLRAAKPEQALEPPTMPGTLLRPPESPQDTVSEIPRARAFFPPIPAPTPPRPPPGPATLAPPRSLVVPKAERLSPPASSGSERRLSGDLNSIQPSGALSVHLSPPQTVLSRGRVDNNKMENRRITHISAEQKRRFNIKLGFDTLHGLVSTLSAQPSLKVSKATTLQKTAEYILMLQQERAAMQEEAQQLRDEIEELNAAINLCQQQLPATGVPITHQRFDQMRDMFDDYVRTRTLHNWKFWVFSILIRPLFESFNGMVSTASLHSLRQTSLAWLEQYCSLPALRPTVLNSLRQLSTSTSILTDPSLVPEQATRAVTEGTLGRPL
Test: affinity purification with mass spectrometry; identification of transcriptional co-regulators of ChREBP in hepatocytes; Phf2 purified with ChREBP

binding: binds
Substance: endogenous Phf2 (mouse liver / hepatocytes) (from UniProt Q9WTU0 1-1096) (enzyme)
